The values that follow come from article PMC7483473.

Chains of the proteins cited; added tags and fusions are not shown. Residues count along the entry.
UniProt P41594, residues 21-1212: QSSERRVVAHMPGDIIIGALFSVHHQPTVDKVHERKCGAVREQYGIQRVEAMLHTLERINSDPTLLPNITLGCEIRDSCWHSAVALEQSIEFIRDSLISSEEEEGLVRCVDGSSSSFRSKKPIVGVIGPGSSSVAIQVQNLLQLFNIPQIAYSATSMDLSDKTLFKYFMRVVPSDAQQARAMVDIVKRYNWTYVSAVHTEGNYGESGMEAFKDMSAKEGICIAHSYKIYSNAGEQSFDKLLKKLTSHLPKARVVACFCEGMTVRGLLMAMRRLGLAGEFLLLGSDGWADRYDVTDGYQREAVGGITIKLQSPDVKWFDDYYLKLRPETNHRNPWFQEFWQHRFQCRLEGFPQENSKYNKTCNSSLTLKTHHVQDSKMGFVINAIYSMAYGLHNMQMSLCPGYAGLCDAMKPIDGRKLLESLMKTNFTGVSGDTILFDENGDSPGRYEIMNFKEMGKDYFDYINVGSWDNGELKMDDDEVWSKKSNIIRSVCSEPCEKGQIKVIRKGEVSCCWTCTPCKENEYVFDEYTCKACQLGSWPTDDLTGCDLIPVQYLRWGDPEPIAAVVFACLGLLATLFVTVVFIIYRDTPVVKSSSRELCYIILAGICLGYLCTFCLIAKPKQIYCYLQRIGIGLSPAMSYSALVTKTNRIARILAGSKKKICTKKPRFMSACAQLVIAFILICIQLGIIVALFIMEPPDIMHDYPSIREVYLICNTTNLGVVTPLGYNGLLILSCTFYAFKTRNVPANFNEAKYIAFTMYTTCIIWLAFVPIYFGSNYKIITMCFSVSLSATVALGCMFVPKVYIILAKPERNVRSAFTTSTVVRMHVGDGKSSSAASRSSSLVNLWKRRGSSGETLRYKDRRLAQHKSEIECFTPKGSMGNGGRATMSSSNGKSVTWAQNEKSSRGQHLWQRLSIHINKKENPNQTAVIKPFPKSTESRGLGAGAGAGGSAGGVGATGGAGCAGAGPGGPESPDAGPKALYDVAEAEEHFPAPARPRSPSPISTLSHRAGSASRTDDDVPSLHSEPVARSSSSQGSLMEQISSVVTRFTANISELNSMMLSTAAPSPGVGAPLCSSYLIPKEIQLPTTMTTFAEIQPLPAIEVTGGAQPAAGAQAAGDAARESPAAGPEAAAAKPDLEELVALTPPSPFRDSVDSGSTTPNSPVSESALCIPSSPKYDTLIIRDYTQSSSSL

Results are given in words; binding and its absence hold for the method and conditions named. In cells and extracts the contact can be indirect. Some binding calls cover weakened binding; strength is not graded here.

For this assay, the target named is mNeonGreen labeled metabotropic glutamate receptor 5 (UniProt P41594). In words: single-molecule pull-down (SiMPull) with stepwise photobleaching; detergent isolation with n-dodecyl β-D-maltoside (three concentrations for mNG-ADRβ2; 1% DDM for the mGluRs), biotin-streptavidin pull-down on a slide.

As for “mNeonGreen labeled metabotropic glutamate receptor 5 (from UniProt P41594 21-1212)”, the binding entry is on record as “binds”.
